Results published in patent US11186575B2, “Treatment of helicobacter pylori infections” (Albert Einstein College of Medicine, Inc., priority 2012, dated 2021).
For at least one compound, name, drawing or mass did not settle the structure.

Target: T1, HpMTAN (Helicobacter pylori, UniProt Q9ZMY2)
T1 construct: His6 (N); made in house; host or cells: E. coli BL21 (DE3)
T1 sequence (Q9ZMY2 1-230): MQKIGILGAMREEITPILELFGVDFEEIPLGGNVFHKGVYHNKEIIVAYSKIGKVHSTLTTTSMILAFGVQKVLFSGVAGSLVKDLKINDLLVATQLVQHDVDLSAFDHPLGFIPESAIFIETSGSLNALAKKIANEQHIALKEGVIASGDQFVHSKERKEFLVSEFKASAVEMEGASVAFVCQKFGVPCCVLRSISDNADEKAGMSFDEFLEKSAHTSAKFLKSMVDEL
Experiment: Kinetics of HpMTAN with substrates, direct assay (absorbance at 274 nm)
Type: biochemical
Conditions: substrate of purified HpMTAN
Protocol: Kinetics of HpMTAN were determined using a direct assay involving absorbance decrease at 274 nm continuously as a consequence of formation of free adenine from 5′-methylthioadenosine. The Ki and Ki* values of BuT-DADMe-ImmA (30) were determined using coupled assays, in which xanthine oxidase was used as the coupling enzyme and absorbance increase was followed at 292 nm as the product adenine is converted to 2,8-dihydroxyadenine. Both assays have been previously described
BuT-DADMe-ImmA (30) was previously characterized as a transition state analogue inhibitor of EcMTAN (FIG. 1C)^8. Here, inhibition assays were performed using BuT-DADMe-ImmA against recombinant HpMTAN with 5′-methylthioadenosine as substrate. Purified HpMTAN uses both 5′-methylthioadenosine and 6-amino-6-deoxyfutalosine as facile substrates. […] The low Kd value supports the proposal that BuT-DADMe-ImmA is a transition state analogue inhibitor for HpMTAN. […] The nitrogen of the hydroxypyrrolidine moiety has a pKa value of 9, and thus mimics the positive charge of a ribocation at the transition state. The methylene bridge extends the distance between the sugar and the purine base leaving group, as this distance is near 3 Å at the transition state. […]

SMILES: Nc1ncnc2c1ncn2[C@@H]1O[C@H](CCC(=O)c2cccc(C(=O)O)c2)[C@@H](O)[C@H]1O [6-amino-6-deoxyfutalosine]
- catalytic efficiency (kcat/Km): 5.4e+06 M⁻¹ s⁻¹
